# ± gives the standard deviation. The list shows a part of the results, in another mix than the full data. Many entries were measured with a wide error.
# Tested on: EfPiwi piRISC loaded with piRNA #1 (26 nt)
# Assay: pre-steady-state target cleavage rate (min^-1); guide: piRNA #1 5'p-UGAGGUAGUAGGUUGUAUAGUAUCCA; MIWI and MILI are mouse PIWI proteins and EfPiwi is from a freshwater sponge; tags in brackets are library labels; higher = faster piRNA-guided slicing of the target
# Details: auxiliary factor: 500 nM Ephydatia muelleri Gtsf1
# Outline: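 A burst-and-steady-state fit was used to obtain the pre-steady-state cleavage rate. The input data were sequencing reads of uncleaved targets, normalised to depth and to weakly complementary targets, from a […] transcribed, DNA-blocked target RNA library mixed with 1 nM active affinity-purified piRISC holding one synthetic guide, with or without 500 nM GTSF1 partner protein, in HEPES–potassium acetate buffer at 33 °C for 0–8 or 0–960 min. Three trials were pooled and k3 was capped at 0.0001 min^-1.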
row,Sequence,pre-steady-state target cleavage rate
1,GGAGUGGAUACUAUACAACCUACUACUUCA,0.104 ± 0.042
2,GGAGACCUUACUAUUCAACCAACUACCUCA,0.00109 ± 0.0052
3,GGAGACGUUACUAUACAACCUACUACCUGA,0.00573 ± 0.0022
4,GGAGACCUAACUAAACAAGCUACUACCUCA,0.0016 ± 0.008
5,GGAGACCUAUGAAUAGAAGCUACUACCUCA,0.000313 ± 0.0094
6,GGAGACCUUACUAUACUACCUACUUCCUCA,0.000522 ± 0.0042
7,GGAGACCUUACAAUAGAACCUACUACCUCA,0.00085 ± 0.0074
8,GGAGACCUUACUAUAGCAACCUACUACCUCA,0.00326 ± 0.0039
9,GGAGACCUAUCUAUACAACCUACUACCCUCA,0.00178 ± 0.0045
10,GGAGACCUAUGUAUACAACCUACUGCCUCA,0.00182 ± 0.0051
11,GGAGACCUAUCUAUACAACCUACUACCUAA,0.00267 ± 0.0042
12,GGAGAGGAUACUAUACAACCUACUACCCCA,0.00713 ± 0.0022
13,GGAGAGGAAACUAUACAACCUUCUACCUCA,0.00297 ± 0.0027
14,GGAGACCUUACUAUACAACGUACAACCUCA,0.00369 ± 0.0054
15,GGAGAGCAUACUAUACAACCUACUACCACA,0.00318 ± 0.0021
16,GGAGACCUUAGUAUACAACCUACAACCUCA,0.00245 ± 0.0047
17,GGAGACGUUACUAUACAACCUACUACGUCA,0.00396 ± 0.0018
18,GGAGUGGAUACUAUAGUACCUACUACCUCA,0.00341 ± 0.0035
19,GGAGACCUUAGUAUACUACCUACUACCUCA,0.0029 ± 0.0042
20,GGAGACCAUACUAAACUACCUACUACCUCA,0.00391 ± 0.0039

# A different layout for some results above:
row	Sequence	pre-steady-state target cleavage rate
13	GGAGAGGAAACUAUACAACCUUCUACCUCA	0.00297 ± 0.0027
14	GGAGACCUUACUAUACAACGUACAACCUCA	0.00369 ± 0.0054
15	GGAGAGCAUACUAUACAACCUACUACCACA	0.00318 ± 0.0021

# (next part)

row,Sequence,pre-steady-state target cleavage rate
1,GGAGUGGAUUACUAUACAACCUACUACCUCA,0.00938 ± 0.0037
2,GGAGACCUAUGAUUACAACCUACUAGGUCA,0.00089 ± 0.0052
3,GGAGACCUAUGUAUACAUGCUACUACCUCA,0.00156 ± 0.0076
4,GGAGUGGAUACUAUAGAACCAACUACCUCA,0.00159 ± 0.0019
5,GGAGACCUUACUAUACAUGCUACUACCUCA,0.00213 ± 0.004
6,GGAGACGAUACUAUGACAACCUACUACCUCA,0.00896 ± 0.0044
7,GGAGACCAUACUAAACAACCAACUACCUCA,0.0012 ± 0.0066
8,GGAGACCUAACUAUACAACCUACAACCUCA,0.00286 ± 0.0033
9,GGAGACCUAUGUAUACAACGUACUACCUCA,0.00163 ± 0.0035
10,GGAGAGGAUGACUAUACAACCUACUACCUCA,0.01 ± 0.006
11,GGAGACCUAACUAUUCAACGUACUACCUCA,0.00128 ± 0.0039
12,GGAGAGGAUACUAAUACAACCUACUACCUCA,0.128 ± 0.048
13,GGAGACCUAUGAUUAGAACCUACUUCCUCA,0.000169 ± 0.013
14,GGAGACCUUACUAUAGAAGCUACUACCUCA,0.00234 ± 0.0054
15,GGAGAGGAUACUAUGACAACCUACUACCUCA,0.102 ± 0.041
16,GGAGUGGAUACUAUACAACCAAGUACCUCA,0.00281 ± 0.0018
17,GGAGACGAUACUAACAACCUACUACCUCA,0.00704 ± 0.0045
18,GGAGACCUAACUAUACAAGCUACAACCUCA,0.000697 ± 0.0039
19,GGAGACCUAUGUAUACAACCUAAUACCUCA,0.000733 ± 0.0063
20,GGAGACGAUACUAUACAACCUAGUUCCUCA,0.00305 ± 0.0018

# From the supplement of paper PMC10338343
